Data as given in PubChem BioAssay AID493014 (National Center for Advancing Translational Sciences (NCATS), 2011).
The other results are listed elsewhere or left out. Shown are side measurements of this screen, not its main read-out; they come without a call. The list favours compounds with an active or inconclusive main result. The note in brackets gives the kind of curve behind each potency; many fits are weak.

Experiment: qHTS Assay to Find Inhibitors of Chronic Active B-Cell Receptor Signaling
Settings: ABC-DLBCL IkBa-CBG/CBR reporter, luminescence ratio (green luciferase fused to IkBa over red control in TMD8 lymphoma cells), 4 h
Method in brief: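 Compounds up to 46 uM were incubated four hours with TMD8 cells whose green CBG68 luciferase is fused to IkappaBalpha; red CBR luminescence normalised the signal, and concentration-effect curves were fitted to fusion, red and ratio data.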

[1] = measured here: CBR red luminescence, cell number
[2] = measured here: IkBa-CBG green luminescence

Compound	AC50 [1]	AC50 [2]
c1ccc(Cn2cc(CN3CCCO3)c(-c3ccc4c(c3)OCO4)n2)cc1	35.5 µM [rising, single point]	–
COC(=O)c1cccc(NC(=O)c2cc3sccc3n2C)c1	0.184 µM [falling, full curve, poor fit]	–
Cc1ccc(NC(=O)c2ccc3c(c2)NC(=O)CS3)nc1	20.6 µM [falling, single point]	–
O=C(COC(=O)[C@@H]1CCCN1C(=O)c1cccs1)NCCc1ccccc1	6.51 µM [rising, full curve]	–
O=C(Nc1ccccc1N1CCCCC1)c1cccc(F)c1	0.731 µM [rising, partial curve, poor fit]	–
CCCc1[nH]n(-c2ccc([N+](=O)[O-])cc2)c(=O)c1C=NCCN1CCNCC1	0.1 µM [rising, full curve, poor fit]	–
CCOC(=O)C(C)Oc1cccc2c(=O)n(CC(=O)NCc3ccc4c(c3)OCO4)ccc12 (stereo not drawn)	2.51 µM [rising, partial curve, poor fit]	2.51 µM [falling, full curve]
O=C(NCc1ccc(N2CCCC2=O)cc1)c1cn(CCc2ccccc2)nn1	0.0651 µM [falling, full curve, poor fit]	–
COc1ccc2c(c1)c(=O)oc1cc(OCC(=O)NC3CC3)ccc12	14.6 µM [rising, partial curve, poor fit]	–
Oc1cccc(/C=N/N(Cc2ccccc2)c2ccccc2)c1	35.5 µM [falling, partial curve, poor fit]	35.5 µM [rising, partial curve, poor fit]
O=C(O)CSc1ccc2ccccc2n1	0.103 µM [rising, full curve, poor fit]	–
CC(C)SC1=NC(C)(C)C=C(/C=C/c2ccc(Cl)cc2Cl)N1	11.6 µM [falling, partial curve]	–
COc1cccc2sc(N(Cc3cccnc3)C(=O)C3CCCCC3)nc12	1.78 µM [falling, full curve]	–
CC(Oc1ccc(Br)cc1)C(=O)Nc1nc(-c2ccccn2)cs1 (stereo not drawn)	8.91 µM [rising, partial curve, poor fit]	11.2 µM [falling, single point]
O=C(CCC(=O)OCc1cccc(C(=O)Oc2ccccc2)c1)Nc1cccc2ccccc12	2.31 µM [rising, full curve, poor fit]	–
COc1ccc(Nc2nc(-c3ccccc3O)nc3ccccc23)cc1	28.2 µM [falling, single point]	–
Cc1ccc(NC(=O)C(c2ccccc2)N2CCN(C(=O)c3ccco3)CC2)cc1Cl (stereo not drawn)	1.16 µM [rising, full curve, poor fit]	–
Cc1ccc(C2(C(F)(F)F)NC(=O)N3CCN=C3S2)cc1 (stereo not drawn)	28.2 µM [falling, single point]	–
Cc1ccc(NC(=S)NCCc2ccccc2)nc1	2.82 µM [rising, full curve]	–
O=C(O)CCCCCN=C1CCc2ccccc2N1	3.16 µM [falling, full curve, poor fit]	–

Compound	AC50 [1]	AC50 [2]
COc1cccc(/C=C2\CCC(C3CCCC3)C2=O)c1 (stereo not drawn)	12.6 µM [rising, single point]	–
O=S(=O)(c1cccc2cccnc12)n1cnc2ccccc21	29.1 µM [falling, single point]	–
CCCCC1(CCCC)NC(=S)N(Nc2ccc(C)cc2)C1=O	2.91 µM [rising, single point]	–
O=C(CNC(=O)c1cccs1)NCC(=O)OCc1ccc(Cl)cc1	35.5 µM [rising, single point]	–
Cc1ccc(/C=C/C(=O)NCCCN2CCN(CCCNC(=O)/C=C/c3ccc(C)o3)CC2)o1	13 µM [rising, partial curve, poor fit]	–
O=C(N/N=C/c1cc(O)ccc1[N+](=O)[O-])c1ccc2c(c1)OCCO2	3.55 µM [falling, partial curve]	–
Nn1c(=O)[nH]c2c([nH]c3ccccc32)c1=O	12.6 µM [falling, partial curve, poor fit]	–
CC(C)(C)CC(C)(C)NC(=S)NC1CCN(Cc2ccccc2)CC1	29.1 µM [falling, single point]	–
COc1ccc(-c2nc3ccccc3[nH]2)cc1	16.4 µM [falling, single point]	–
COc1ccc(-n2c(C)cc(C(=O)COC(=O)c3cc(OC)c(OC)cc3NC(=O)c3cccs3)c2C)cc1	32.6 µM [rising, single point]	–
COc1ccccc1N(CC(=O)NC1CCCC1)C(=O)CCC(=O)Nc1cc(C)on1	1.46 µM [falling, full curve, poor fit]	–
CCOc1cc(-c2cn(S(=O)(=O)c3cccc4nsnc34)nc2N)cc(OCC)c1OCC	32.6 µM [falling, single point]	–
CC1CCCCN1C(=O)Cc1ccc(Cl)cc1 (stereo not drawn)	9.2 µM [rising, partial curve, poor fit]	–
CCCCOc1ccc(OCCNS(=O)(=O)N(C)C)cc1	35.5 µM [rising, single point]	–
CCCC1(C(=O)O)NC(c2ccccc2O)C2C(=O)N(c3cccc(Cl)c3)C(=O)C21 (stereo not drawn)	13 µM [rising, single point]	–
C/C(=N/OCO/N=C(/C)c1ccc(F)cc1)c1ccc(F)cc1	29.1 µM [falling, single point]	–
COc1ccc(C(=O)NCc2ccc3c(c2)CCN3C(C)=O)cc1OC	3.55 µM [falling, partial curve, poor fit]	–
COCCCNC(=O)Cn1ccc(N)nc1=O	1.64 µM [rising, full curve]	–
COCC(C)n1c(SCC(=O)Nc2ccc3c(c2)OCCO3)nc2ccccc2c1=O (stereo not drawn)	2.59 µM [rising, partial curve, poor fit]	–
O=C(O)CCn1cc(C2CC(c3ccccc3)=NN2c2ccccc2)c(-c2ccccc2)n1 (stereo not drawn)	14.1 µM [falling, single point]	–

3 entries from above, ordered by count of non-hydrogen atoms, falling:
Compound	AC50 [1]	AC50 [2]
O=C(CCC(=O)OCc1cccc(C(=O)Oc2ccccc2)c1)Nc1cccc2ccccc12	2.31 µM [rising, full curve, poor fit]	–
O=C(NCc1ccc(N2CCCC2=O)cc1)c1cn(CCc2ccccc2)nn1	0.0651 µM [falling, full curve, poor fit]	–
COc1cccc2sc(N(Cc3cccnc3)C(=O)C3CCCCC3)nc12	1.78 µM [falling, full curve]	–
